The list does not hold the whole screen: it is rich in T/C values a quarter to a half above the control, in often repeated tests (any T/C) and in doses without a T/C. Further doses and runs are listed elsewhere. T/C is the treated group as % of the vehicle group. Some doses have a count of surviving animals in place of a T/C: the source holds a T/C of zero for them, seemingly a mark for toxic or unscored doses. Some doses without a T/C left all or most animals alive at the check, yet need not have been tolerated: survival well below the control is almost never listed, so the zero probably covers shortened survival too. Survivors were counted at the toxicity check, usually on the fifth day, unless a day is given; later deaths do not show. Schedule codes are those of the source, taken here to give the interval after Q, in days (D) or hours (H), and the number of doses after X. Some entries were tested several times; their values stand side by side, smallest first. Where survival is the endpoint, the PubChem record calls one and a half times the control and up active, and a quarter to a half above the control has no call in these data; cut-offs in other NCI protocols can differ. Some T/C values are followed by the survivors on the day toxicity was checked, most often the fifth; where none is given, no animal had died by that day.
System: P388 leukemia ip, CD2F1 mice, survival T/C
Test: NCI In Vivo Anticancer Drug Screen. Data for tumor model P388 Leukemia (intraperitoneal) in CD2F1 (CDF1) mice
Conditions: T/C endpoint: median survival time, higher T/C = longer survival
[1] = dose: 6.25 mg/kg/injection, schedule: Q01DX009 (ip), vehicle: saline with Tween-80
[2] = dose: 200.0 mg/kg/injection, schedule: Q01DX009 (ip), vehicle: Klucel (hydroxypropylcellulose) (HPC)
[3] = dose: 200.0 mg/kg/injection, schedule: Q01DX001 (ip), vehicle: saline with Tween-80
[4] = dose: 25.0 mg/kg/injection, schedule: Q01DX009 (ip), vehicle: saline with Tween-80
[5] = dose: 50.0 mg/kg/injection, schedule: Q01DX009 (ip), vehicle: saline with Tween-80
[6] = dose: 100.0 mg/kg/injection, schedule: Q01DX009 (ip), vehicle: saline with Tween-80
[7] = dose: 200.0 mg/kg/injection, schedule: Q01DX009 (ip), vehicle: saline with Tween-80
[8] = dose: 100.0 mg/kg/injection, schedule: Q01DX001 (ip), vehicle: saline with Tween-80
[9] = dose: 100.0 mg/kg/injection, schedule: Q01DX005 (ip), vehicle: Klucel (hydroxypropylcellulose) (HPC)
[10] = dose: 25.0 mg/kg/injection, schedule: Q01DX009 (ip), vehicle: saline
[11] = dose: 50.0 mg/kg/injection, schedule: Q01DX009 (ip), vehicle: saline
[12] = dose: 100.0 mg/kg/injection, schedule: Q01DX009 (ip), vehicle: saline
[13] = dose: 200.0 mg/kg/injection, schedule: Q01DX009 (ip), vehicle: saline
[14] = dose: 50.0 mg/kg/injection, schedule: Q01DX009 (ip), vehicle: Klucel (hydroxypropylcellulose) (HPC)

Compound: CCOC(=O)C(Cc1ccc(N(CCCl)CCCl)cc1)NC=O (configuration not stated)
- T/C (dose: 3.13 mg/kg/injection, schedule: Q04DX003 (ip), vehicle: saline with Tween-80): 127 % of control
- T/C (dose: 25.0 mg/kg/injection, schedule: Q04DX003 (ip), vehicle: saline with Tween-80): 145 % of control
- survivor count (dose: 400.0 mg/kg/injection, schedule: Q04DX003 (ip), vehicle: saline with Tween-80): 2 of 6

Compound: CCCN(CCC)C(=O)[S-].CCCN(CCC)C(=O)[S-].[Ni+2]
- survivor count [1]: 6 of 6

Compound: O=c1[nH]cccc1O
- T/C (dose: 100.0 mg/kg/injection, schedule: Q01DX009 (ip), vehicle: Klucel (hydroxypropylcellulose) (HPC)): 125 and 128 % of control
- T/C (dose: 128.0 mg/kg/injection, schedule: Q01DX009 (ip), vehicle: saline with Tween-80): 125 % of control
- T/C [2]: 127 and 128 % of control
- T/C (dose: 250.0 mg/kg/injection, schedule: Q01DX009 (ip), vehicle: saline with Tween-80): 132 % of control
- T/C (dose: 300.0 mg/kg/injection, schedule: Q01DX009 (ip), vehicle: saline): 128 and 130 % of control
- T/C (dose: 400.0 mg/kg/injection, schedule: Q01DX009 (ip), vehicle: Klucel (hydroxypropylcellulose) (HPC)): 133 % of control [5 of 6 alive]
- T/C (dose: 400.0 mg/kg/injection, schedule: Q01DX009 (ip), vehicle: saline): 126 [5 of 6 alive] and 138 % of control [5 of 6 alive]
- survivor count (dose: 600.0 mg/kg/injection, schedule: Q01DX009 (ip), vehicle: Klucel (hydroxypropylcellulose) (HPC)): 3 of 6 and 6 of 6

Compound: Cc1ccc(NCCCC2CCCN3CCCCC23)c2c(=O)c3cc(O)ccc3sc12 (configuration not stated)
- survivor count [3]: 0 of 6
- survivor count (dose: 400.0 mg/kg/injection, schedule: Q01DX001 (ip), vehicle: saline with Tween-80): 0 of 6

Compound: CCOC(=O)/C=C(\C)Sc1cc(O)c2ccccc2c1O
- survivor count [4]: 2 of 6
- survivor count [5]: 1 of 6
- survivor count [6]: 1 of 6
- survivor count [7]: 0 of 6

Compound: CC1OC(c2ccc3c(c2O)C(=O)C2=C(C3=O)[C@H]3OC(=O)C[C@H]3O[C@@H]2C)CC(N(C)C)C1O (some centres not stated)
- survivor count (dose: 3.0 mg/kg/injection, schedule: Q01DX005 (ip), vehicle: other): 4 of 6
- survivor count (dose: 6.0 mg/kg/injection, schedule: Q01DX005 (ip), vehicle: other): 3 of 6
- survivor count (dose: 12.0 mg/kg/injection, schedule: Q01DX005 (ip), vehicle: other): 0 of 6
- survivor count (dose: 375.0 micrograms/kg/injection, schedule: Q01DX005 (ip), vehicle: other): 6 of 6

Compound: CC(C)(C)[Si](C)(C)OCc1ccccc1N1C(=O)C(N=[N+]=[N-])C1/C=C/c1ccccc1 (configuration not stated)
- survivor count [8]: 6 of 6
- survivor count [3]: 6 of 6

Compound: Nc1ncnc(Nc2ccc(S(N)(=O)=O)cc2)n1
- survivor count (dose: 40.0 mg/kg/injection, schedule: Q01DX009 (ip), vehicle: Klucel (hydroxypropylcellulose) (HPC)): 1 of 5

Compound: CCC[CH2][Sn]1([CH2]CCC)[O]c2ccccc2[O]1
- T/C (dose: 3.12 mg/kg/injection, schedule: Q01DX005 (ip), vehicle: saline with Tween-80): 130 % of control
- survivor count (dose: 6.25 mg/kg/injection, schedule: Q01DX005 (ip), vehicle: saline with Tween-80): 1 of 6 and 2 of 6
- survivor count (dose: 12.5 mg/kg/injection, schedule: Q01DX005 (ip), vehicle: saline with Tween-80): 0 of 6
- survivor count (dose: 25.0 mg/kg/injection, schedule: Q01DX005 (ip), vehicle: saline with Tween-80): 0 of 6
- survivor count (dose: 50.0 mg/kg/injection, schedule: Q01DX005 (ip), vehicle: Klucel (hydroxypropylcellulose) (HPC)): 4 of 6
- survivor count [9]: 1 of 6
- survivor count (dose: 200.0 mg/kg/injection, schedule: Q01DX005 (ip), vehicle: Klucel (hydroxypropylcellulose) (HPC)): 0 of 6

Compound: O=C1c2ccccc2C(=O)N1CC[P+](Cc1ccccc1)(Cc1ccccc1)Cc1ccccc1
- survivor count (dose: 200.0 mg/kg/injection, schedule: Q01DX009 (ip), vehicle: other): 3 of 6

Compound: CC(C)=CCC/C(C)=C/COc1ccc(/C=C2/C(=O)N(O)[C@@H](C)C(=O)N2O)cc1
- T/C (dose: 12.5 mg/kg/injection, schedule: Q01DX009 (ip), vehicle: saline): 128 % of control
- T/C [10]: 133 % of control [5 of 6 alive]
- T/C [11]: 137 and 139 % of control
- survivor count [11]: 3 of 6
- survivor count [12]: 4 of 6
- survivor count [13]: 1 of 6

Compound: COC(=O)C1=C(C(=O)OC)P2(C)(C)ON=C(c3c(C)cc(C)cc3C)N2C1(c1ccccc1)c1ccccc1
- survivor count [9]: 6 of 6

Compound: CC(=O)N/N=C/C(C)(C)C(C)(C)/C=N/NC(C)=O
- T/C (dose: 30.0 mg/kg/injection, schedule: Q01DX005 (ip), vehicle: Klucel (hydroxypropylcellulose) (HPC)): 129 % of control
- T/C (dose: 60.0 mg/kg/injection, schedule: Q01DX005 (ip), vehicle: Klucel (hydroxypropylcellulose) (HPC)): 136 and 139 % of control
- T/C (dose: 120.0 mg/kg/injection, schedule: Q01DX005 (ip), vehicle: Klucel (hydroxypropylcellulose) (HPC)): 141 % of control
- survivor count (dose: 240.0 mg/kg/injection, schedule: Q01DX005 (ip), vehicle: Klucel (hydroxypropylcellulose) (HPC)): 0 of 6

Compound: CCOc1ccc(/C=C/c2ccc3ccccc3[n+]2C)cc1OCC
- T/C (dose: 3.12 mg/kg/injection, schedule: Q01DX009 (ip), vehicle: saline with Tween-80): 138 % of control
- T/C [1]: 130 % of control
- T/C (dose: 12.5 mg/kg/injection, schedule: Q01DX009 (ip), vehicle: saline with Tween-80): 132 % of control
- T/C [4]: 138 % of control

Compound: NC(N)=N/N=C1\C/C(=N\N=C(N)N)c2ccccc21
- survivor count [8]: 0 of 6

Compound: COc1ccc(/C=C/C(C)=N/NC(N)=S)cc1OC
- survivor count (dose: 200.0 mg/kg/injection, schedule: Q01DX005 (ip), vehicle: saline with Tween-80): 3 of 6

Compound: NNC(=O)c1ccccc1Cl
- survivor count [10]: 1 of 6
- survivor count [14]: 0 of 6
- survivor count [11]: 0 of 6

Compound: O=c1cc(CCl)[nH]nc1CCl
- T/C (dose: 22.0 mg/kg/injection, schedule: Q04DX003 (ip), vehicle: saline with Tween-80): 144 % of control

Compound: Cc1cc(=O)oc2c3c4c(cc12)CCCN4CCC3
- survivor count (dose: 400.0 mg/kg/injection, schedule: Q04DX003 (ip), vehicle: Klucel (hydroxypropylcellulose) (HPC)): 4 of 6

Compound: O=[N+]([O-])c1cnc(Sc2ccncn2)c([N+](=O)[O-])c1
- survivor count [11]: 4 of 6
- survivor count [12]: 3 of 6
- survivor count [13]: 0 of 6

Compound: CC1(C)N=C(N)N=C(N)N1c1ccc(Cl)c(C(F)(F)F)c1
- T/C (dose: 3.12 mg/kg/injection, schedule: Q01DX009 (ip), vehicle: suspension in saline): 134 % of control
- T/C (dose: 6.25 mg/kg/injection, schedule: Q01DX009 (ip), vehicle: saline): 133 % of control
- T/C (dose: 6.25 mg/kg/injection, schedule: Q01DX009 (ip), vehicle: suspension in saline): 146 % of control
- T/C [10]: 126 % of control

Compound: CC1(O)c2ccccc2[P+](C)(c2ccccc2)c2ccccc21 (configuration not stated)
- survivor count [5]: 3 of 6 and 5 of 6
- survivor count [6]: 4 of 6
- survivor count [7]: 3 of 6

Compound: C[C@@H]1CN1C1=CC(=O)C(N2C[C@H]2C)=CC1=O
- T/C (dose: 0.15 mg/kg/injection, schedule: Q01DX009 (ip), vehicle: gum acacia): 135 % of control
- T/C (dose: 0.62 mg/kg/injection, schedule: Q01DX009 (ip), vehicle: gum acacia): 137 % of control
- T/C (dose: 1.25 mg/kg/injection, schedule: Q01DX009 (ip), vehicle: gum acacia): 140 % of control
- survivor count (dose: 20.0 mg/kg/injection, schedule: Q01DX009 (ip), vehicle: gum acacia): 5 of 6

Compound: O=C(NCCCCN1CC1)C(=O)NCCCCN1CC1
- T/C (dose: 1.56 mg/kg/injection, schedule: Q04DX003 (ip), vehicle: Klucel (hydroxypropylcellulose) (HPC)): 134 % of control

Compound: CC(=O)OCc1c(COC(C)=O)c(-c2ccc(Cl)c(Cl)c2)n2c1CCC2
- T/C [14]: 141 % of control
- T/C [2]: 127 % of control
